Test results published in article PMC11300639.
No constants are given. Whether binding was seen depends on the method and setting. In cells and extracts the contact can be indirect. Some binding calls cover weakened binding; strength is not graded here. For some assays here: Sequences can lack the tags named with a protein.

Key:
[1] = molecular target: T1, TSC1 (human (endogenous in 786-O and A498)) (UniProt Q92574); assay: proximity ligation; Proximity Ligation Assay (PLA) in 786-O cells with the indicated antibodies
T1 sequence: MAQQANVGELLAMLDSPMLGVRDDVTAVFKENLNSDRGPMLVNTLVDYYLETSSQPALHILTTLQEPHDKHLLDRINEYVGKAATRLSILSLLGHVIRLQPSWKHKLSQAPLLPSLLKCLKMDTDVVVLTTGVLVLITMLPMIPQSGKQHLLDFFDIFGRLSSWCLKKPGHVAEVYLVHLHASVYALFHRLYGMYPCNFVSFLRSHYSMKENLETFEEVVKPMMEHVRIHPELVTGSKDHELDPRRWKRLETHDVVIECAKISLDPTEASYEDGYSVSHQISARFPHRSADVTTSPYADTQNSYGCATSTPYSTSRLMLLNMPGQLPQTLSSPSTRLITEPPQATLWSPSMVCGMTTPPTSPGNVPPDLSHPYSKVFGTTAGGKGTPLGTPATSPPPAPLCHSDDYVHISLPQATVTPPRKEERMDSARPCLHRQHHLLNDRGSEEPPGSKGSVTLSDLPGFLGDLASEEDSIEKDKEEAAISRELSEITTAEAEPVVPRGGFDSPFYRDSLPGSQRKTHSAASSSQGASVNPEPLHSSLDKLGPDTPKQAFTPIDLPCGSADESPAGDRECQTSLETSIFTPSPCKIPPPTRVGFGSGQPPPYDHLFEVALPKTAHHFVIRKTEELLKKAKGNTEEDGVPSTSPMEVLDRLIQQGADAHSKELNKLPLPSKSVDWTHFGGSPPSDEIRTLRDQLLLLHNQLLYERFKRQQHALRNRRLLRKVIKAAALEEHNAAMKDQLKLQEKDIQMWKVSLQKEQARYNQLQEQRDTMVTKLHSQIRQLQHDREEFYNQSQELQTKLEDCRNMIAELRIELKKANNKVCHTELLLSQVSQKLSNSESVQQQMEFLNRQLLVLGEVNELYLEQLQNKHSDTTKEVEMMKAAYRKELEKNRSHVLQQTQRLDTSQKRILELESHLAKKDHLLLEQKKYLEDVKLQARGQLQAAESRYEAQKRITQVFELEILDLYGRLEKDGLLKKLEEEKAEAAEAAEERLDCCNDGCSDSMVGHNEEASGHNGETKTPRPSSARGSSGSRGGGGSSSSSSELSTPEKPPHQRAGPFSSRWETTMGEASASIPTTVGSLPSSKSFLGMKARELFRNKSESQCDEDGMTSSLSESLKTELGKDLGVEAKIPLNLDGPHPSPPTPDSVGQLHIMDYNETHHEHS

[2] = molecular target: T1, TSC1 (human (endogenous in 786-O and A498)); assay: co-IP; endogenous proteins in 786-O and A498 cells; immunoprecipitation with TSC1 or RNF26 antibodies (CDK4 or RNF26 antibodies for CDK4 with RNF26); for TSC1 with RNF26 in 786-O also after phosphatase or palbociclib treatment, CDK4 overexpression or CDK4 siRNA
[3] = molecular target: T2, GST-RNF26-N (1-379 aa) (human) (UniProt Q9BY78); assay: pull-down; GST pull-down with recombinant proteins of RNF26; source of TSC1 not told
T2 sequence: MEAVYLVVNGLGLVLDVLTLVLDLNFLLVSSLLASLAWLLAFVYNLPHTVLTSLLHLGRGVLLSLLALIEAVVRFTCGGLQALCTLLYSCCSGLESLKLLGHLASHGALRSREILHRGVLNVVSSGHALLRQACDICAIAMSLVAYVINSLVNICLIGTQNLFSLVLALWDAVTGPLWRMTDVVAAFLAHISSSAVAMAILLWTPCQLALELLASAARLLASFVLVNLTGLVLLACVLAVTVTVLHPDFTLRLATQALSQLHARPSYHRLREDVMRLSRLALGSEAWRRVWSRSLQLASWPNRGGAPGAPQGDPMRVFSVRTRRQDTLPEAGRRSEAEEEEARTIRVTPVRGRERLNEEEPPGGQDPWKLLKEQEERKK

[4] = molecular target: wild-type RNF26 (transfected) (human) (UniProt Q9BY78); assay: co-IP; 786-O cells treated with the indicated plasmids (wild-type RNF26 or RNF26 T348A) or chemicals (palbociclib) for 48 h; immunoprecipitation and western blotting
[5] = molecular target: RNF26 T348A (threonine to alanine) mutant (human) (UniProt Q9BY78); assay: as above

## RING finger protein 26 (RNF26) (from UniProt Q9BY78 1-433)
[1]
  binding: binds
[2]
  binding: binds

B1: TSC1 (in the GST pull-down assays) (protein, UniProt Q92574 1-1164)
chain: T1 sequence
[3]
  binding: binds

B2: TSC1 (protein, UniProt Q92574 1-1164)
chain: T1 sequence
[4]
  binding: binds
[5]
  binding: binds
